Values quoted from earlier work in patent US12377109B2, “Formulation and noncovalent stabilization of olivetolic acid derivatives” (MINGOWOOD PHARMACAL LLC, priority 2020, dated 2025).
Where two headings read alike, the source gives them in different places. Some of these results come from one statement about several compounds together.

Settings: Peschel

Row | Compound | degradation (3 months at room temperature) | degradation (4 hours at 80° C.)
1 | C=C(C)C1CCC(C)=CC1c1c(O)cc(CCCCC)c(C(=O)O)c1O (stereo not drawn) [CBDA, 3-p-mentha-1,8-dien-3-yl-6-pentyl-beta-resorcylic acid] | at least 40% | at least 40%
2 | CCCCCc1cc2c(c(O)c1C(=O)O)[C@@H]1C=C(C)CC[C@H]1C(C)(C)O2 [THCA, (6aR,10aR)-1-hydroxy-6,6,9-trimethyl-3-pentyl-6a,7,8,10a-tetrahydrobenzo[c]chromene-2-carboxylic acid] | at least 40% | at least 40%
